{"sequences": {"note": "Protein sequences, listed by entry. Tags and fused reporters are not part of them.", "UniProt Q8K1B8": "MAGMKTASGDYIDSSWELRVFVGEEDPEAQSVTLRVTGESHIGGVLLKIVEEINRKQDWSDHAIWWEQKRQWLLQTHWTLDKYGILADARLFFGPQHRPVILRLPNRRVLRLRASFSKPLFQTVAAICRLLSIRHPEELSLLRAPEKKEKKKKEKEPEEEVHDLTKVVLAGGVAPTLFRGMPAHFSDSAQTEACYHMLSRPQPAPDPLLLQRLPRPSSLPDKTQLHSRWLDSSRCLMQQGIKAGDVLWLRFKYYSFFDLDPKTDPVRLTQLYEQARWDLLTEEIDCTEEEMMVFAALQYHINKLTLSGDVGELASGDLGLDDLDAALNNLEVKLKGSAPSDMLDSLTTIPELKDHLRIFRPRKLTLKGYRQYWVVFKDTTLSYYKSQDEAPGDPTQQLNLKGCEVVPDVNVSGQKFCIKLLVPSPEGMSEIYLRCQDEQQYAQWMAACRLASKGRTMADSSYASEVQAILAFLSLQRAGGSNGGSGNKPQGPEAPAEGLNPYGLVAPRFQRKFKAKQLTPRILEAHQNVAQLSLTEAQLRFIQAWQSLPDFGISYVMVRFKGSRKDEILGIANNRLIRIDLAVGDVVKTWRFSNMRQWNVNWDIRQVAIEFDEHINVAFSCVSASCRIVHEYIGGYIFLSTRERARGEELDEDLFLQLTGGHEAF", "UniProt Q91VJ4": "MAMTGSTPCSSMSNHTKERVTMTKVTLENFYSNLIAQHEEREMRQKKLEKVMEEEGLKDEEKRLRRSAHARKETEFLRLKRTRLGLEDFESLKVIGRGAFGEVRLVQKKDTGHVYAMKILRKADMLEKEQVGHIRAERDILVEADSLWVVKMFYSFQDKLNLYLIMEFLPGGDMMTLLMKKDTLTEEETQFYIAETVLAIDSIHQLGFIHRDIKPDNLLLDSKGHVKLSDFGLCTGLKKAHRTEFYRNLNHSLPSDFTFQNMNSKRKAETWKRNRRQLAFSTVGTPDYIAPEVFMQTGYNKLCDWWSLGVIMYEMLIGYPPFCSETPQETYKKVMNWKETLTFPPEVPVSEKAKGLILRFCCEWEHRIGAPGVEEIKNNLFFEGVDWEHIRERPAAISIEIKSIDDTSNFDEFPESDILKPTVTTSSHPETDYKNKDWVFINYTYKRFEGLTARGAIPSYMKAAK"}, "source": "paper PMC5376635", "about": "“NDR1-Dependent Regulation of Kindlin-3 Controls High-Affinity LFA-1 Binding and Immune Synapse Organization” (Molecular and Cellular Biology, 2017)", "molecules": {"B1": {"name": "Mst1 (enzyme, UniProt Q9JI11 1-487)", "chain": "METVQLRNPPRRQLKKLDEDSLTKQPEEVFDVLEKLGEGSYGSVYKAIHKETGQIVAIKQVPVESDLQEIIKEISIMQQCDSPHVVKYYGSYFKNTDLWIVMEYCGAGSVSDIIRLRNKTLTEDEIATILQSTLKGLEYLHFMRKIHRDIKAGNILLNTEGHAKLADFGVAGQLTDTMAKRNTVIGTPFWMAPEVIQEIGYNCVADIWSLGITAIEMAEGKPPYADIHPMRAIFMIPTNPPPTFRKPELWSDNFMDFVKQCLVKSPEQRATATQLLQHPFVKSAKGVSILRDLINEAMDVKLKRQEAQQREVDQDDEENSEEDEMDSGTMVRAAGDEMGTVRVASTMSGGANTMIEHGDTLPSQLGTMVINTEDEEEEGTMKRRDETMQPAKPSFLEYFEQKEKENQINSFGKNVSGSLKNSSDWKIPQDGDYEFLKSWTVEDLQKRLLALDPMMEQEMEEIRQKYRSKRQPILDAIEAKKRRQQNF"}}, "key": {"Myc–kindlin-3": {"molecular_target": "Myc–kindlin-3 (UniProt Q8K1B8)", "assay": "co-IP; 293T cells transfected with Myc-kindlin-3 and FLAG-NDR1; lysis in 1% NP-40, 20% glycerol, 150 mM NaCl, 25 mM Tris pH 7.5, 2 mM MgCl2; IP with tag antibodies and protein G-Sepharose, four washes, immunoblot"}, "FLAG-NDR1": {"molecular_target": "FLAG-NDR1 (UniProt Q91VJ4)", "assay": "co-IP; 293T cells transfected with Myc-kindlin-3 and FLAG-NDR1; lysis in 1% NP-40, 20% glycerol, 150 mM NaCl, 25 mM Tris pH 7.5, 2 mM MgCl2; IP with tag antibodies and protein G-Sepharose, four washes, immunoblot"}, "[1]": {"molecular_target": "NDR1 (mouse (endogenous in primary T cells)) (UniProt Q91VJ4)", "assay": "co-IP; primary mouse T cells, stimulated with anti-CD3ε (2C11, 10 μg, 5 min) or unstimulated; whole-cell lysate; IP with anti-NDR1 polyclonal antibody and protein G-Sepharose, immunoblot"}, "[2]": {"molecular_target": "NDR1 (mouse (endogenous in primary T cells)) (UniProt Q91VJ4)", "assay": "co-IP; primary mouse T cells, stimulated with anti-CD3ε (2C11, 10 μg, 5 min) or unstimulated; whole-cell lysate; IP with anti-NDR1 polyclonal antibody and protein G-Sepharose, immunoblot", "remark": "listed apart in the source"}}, "note": "Like-named read-outs stand apart in the source and are kept apart here. These are yes or no findings as the source states them, for the method shown. Binding seen in cells or lysates may run through a third protein. Some entries that bind do so weakly or less than the wild type."}
{"molecule": "FLAG-NDR1 (from UniProt Q91VJ4 1-465) (enzyme)", "values": [{"measurement": "binding", "setting": "Myc–kindlin-3", "result": "binds"}]}
{"molecule": "Myc–kindlin-3 (from UniProt Q8K1B8 1-665)", "values": [{"measurement": "binding", "setting": "FLAG-NDR1", "result": "binds"}]}
{"molecule": "kindlin-3 (from UniProt Q8K1B8 1-665)", "values": [{"measurement": "binding", "setting": "[1]", "result": "binds"}]}
{"molecule": "B1", "values": [{"measurement": "binding", "setting": "[2]", "result": "binds"}]}
